Article PMC9829102
These are yes or no findings as the source states them, for the method shown. Binding seen in cells or lysates may run through a third protein. A yes stands for co-enrichment or nearness to the bait. Other partners may have been found. Values belong to the binder of their own block, whether it stands above or below them.

Target: Aplysia kinesin heavy chain 1 (Aplysia californica (endogenous in CNS))
Assay: affinity purification with mass spectrometry; endogenous ApKHC1 complexes immunoprecipitated with anti-ApKHC1 antibody and protein A/G agarose beads from Aplysia CNS lysate (50 mM Tris pH 7.5, 1 mM EDTA, 150 mM NaCl, 1 mM DTT, 0.5% NP-40, 4°C); eluted in 5% SDS, TMT 10-plex LC-MS/MS; animals untrained (control), STS 1 h, LTS 1 h or LTS 3 h

- binding: binds
B1: uncharacterized protein LOC101861750 (protein, UniProt A0ABM0JXA1 1-652)
chain: MTPHGSVGLLLLLSVVSMATSQAVDFTRLPEATGESVVRATVSQIRESCAFQNDYLYLKRLAFVSSEYGEASGSFRPGFHGGIWQISREDYKLTLYMDSTFYDLIRKKLNIEWRKTKWSDLRKPIYSGIAAMLTLERLSPIPRNAKGQAKFFQKNLSGNATLFLDLISQTQRSCDTEELDMAFVLDGSASMTSSEFKESKKFTSLVLRNFYVEPDFVRVSVSTFSDTVTEYIRFLQFITTRSVRKAVFSIRRENGHTNTALALNYLRRFTFTTQGKSRKEAAKIAIIQTDGNSNSRIKTIEAASRLRAAGVTVFAIGIGDGIDSVELEGIASHPTCTHVRKIAVFSELKSLVDDVKDAVCKTNIFQNFNTENKYKCTREKTVMFDVISETTIVARPELGNLNIFGSFKITEPNSAFGDFSSIARAEKPLVIYLDKSDQTLYLSFSANVTHEDHCSSTFIVKAVDSNAMRKTAASTVCITDGHTRKCTDIDYVKSGDYQKVIAPSSSSATRACVEGLVGYQPHPNTTTKYVYCVSKTEAYVVTCPNGFAYLSSQQDCVVPASMDNDTVCRVCSSENWLLGLRNFPVAAKSRLYVNCTAVETCVIKDCGDNLQYYPNDQKCAEASLGSSTWSLHRSQAYIVVVLVLLFLRKLIC

- binding: binds
B2: synaptobrevin (protein, UniProt P35589 1-180)
chain: MSAGPGGPQGGMQPPREQSKRLQQTQAQVDEVVDIMRVNVEKVLDRDQKISQLDDRAEALQAGASQFEASAGKLKRKYWWKNCKMMLILGAIIGVIVIIIIVWVVTSQDSGGDDSGSKTPATAGTSPKPVESGVQGGGGRQQRPHSQLVERRNVLRRTEDHIGCRPHIHSFIHIFMICLV
